The results in this text go back to article PMC3288073.

The exact form of at least one protein or probe is not confirmed. At least one verdict was read from the data and is not stated in words by the source.

The test system of the data set is thrombin (Recothrom), recombinant human (Homo sapiens). The experiment in a line: BLI. The following applies: biotinylated aptamer on SA tip, 30 C, BLI: Octet RED96, SA tips, buffer not stated, recombinant protein, folded or branched DNA. Background: BLI is a label-free optical method that tracks binding on a fibre tip over time.
Consider “ACCCGTGGTAGGGTAGGATGGGGTGGT [Aptamer 30-38/27]”, for which the binding result is recorded as “binds”. To “AGATGCCTGTCGAGCATGCTGTGAATAGGTAGGGTCGGATGGGCTACGGTGTAGCTAAACTGCTTTGTCGACGGG [Aptamer 30-8]” belongs “binds”. For the sequence “AGATGCCTGTCGAGCATGCTGTTGTGGTAGGGTTAGGGATGGTAGCGGTTGTAGCTAAACTGCTTTGTCGACGG [Aptamer 30-14]”, the binding result was “binds”. To “CAGTCCGTGGTAGGGCAGGTTGGGGTGACTTCGTGGAA [Aptamer 60-18/38]” belongs “binds”; to “TACCGTGGTAGGGAAGGTTGGAGTGTA [Aptamer 30-16/27]”, “binds”.
